Laboratory results from patent publication US20240277861A1, “ANTI-HEPATITIS B VIRUS AGENT TARGETING HOST FACTOR LIPG” (PUROTECH BIO, INC., priority 2021, published 2024).
At least one peptide structure holds a part that was inferred or is arguable (an end, a ring closure or a residue). Residues, ends and D or L forms follow the SMILES beside them.

Key:
[1] = test system: HBV; test: Anti-HBV activities of LIPG-binding peptides in PXB cells; type: cell-based; settings: for anti-HBV activity (effect to reduce HBV DNA and cccDNA copy numbers): HBV-infected PXB cells; for HBV-DNA copy number / cccDNA copy number: PXB cells, peptide added extracellularly
Description: An infection source medium was prepared by adding the HBV-infected chimeric mouse serum (PhoenixBio), DMSO, and a PEG 8000 solution to the PXB cell culture medium (PhoenixBio) at final concentrations of 5 genome equivalents/cell, 2%, and 4%, respectively. Various synthesized peptides were diluted to different concentrations in this medium, and the resulting media were added individually to PXB cells (PhoenixBio). After the cells were left to stand in a 5% CO2 incubator at 37° C. for 20 to 28 hours, the medium was removed and the wells were washed once with PBS(−). DMSO and one of the various synthesized peptides were added to the PXB cell culture medium at a final concentration of 2% and different concentrations, respectively, and the resulting media were added individually to the PXB cells to perform medium exchange. This medium exchange was performed at 1, 5, and 9 days post infection and samples were collected at 14 days post infection.
SMI TEST™ M EX-R&D (Medical & Biological Laboratories) was used to extract DNA from the samples. The extracted DNA was used as a template for quantitative PCR of HBV-DNA. For cccDNA detection, the extracted DNA was treated with T5 exonuclease (New England Biolabs), and the resulting DNA was used as a template for quantitative PCR. The T5 exonuclease treatment was performed at 37° C. for 30 minutes, and the DNase was later inactivated by heating at 80° C. for 15 minutes. The following primer set was used for detection.
PXB cells, fresh human liver cells isolated from PXB mice (human hepatocyte chimeric mice), are human liver cells that maintain human liver functions at high levels and allow persistent infection with hepatitis B virus (HBV). Therefore, PXB cells were used to evaluate the anti-HBV activities of LIPG-binding peptides. LIPG-binding peptides were chemically synthesized because they were added extracellularly (Eurofins Genomics K.K.). Clones that had shown excellent results in the studies of Examples 10 and 1 (KIgk-LIPH4-23, KIgk-LIPH4-74, KIgk-LIPH4-15, KIgk-L1l 14-2. KIgk-LIPH14-14. KIgk-LIPH4-87) were selected for chemical synthesis of the peptides. […] Therefore, LIPH4-NTNA and LIPH4-NTNB, which share a common sequence with netrins and consist of 16 amino acids, were also chemically synthesized. The chemically synthesized peptides were dissolved in DMSO for use in HBV assays in PXB cells.
Next, the anti-HBV activity of full-length Netrin-1 was examined in PXB cells. A full-length human recombinant Netrin-1 protein consisting of 604 amino acid residues (molecular weight: 67.5 kDa, SEQ ID NO: 28) was purchased from R&D Systems. United States. A shRNA with the sequence […]ctcgagc[…] TTTTTTG (single underline: terminal sequences for cloning, lowercase letters: hairpin loop sequence) (SEQ ID NO: 64) was used to knock down the Netrin-1 gene.

[2] = test system: HBV; test: Drug efficacy testing of LIPH4-NTNBs in HBV-infected PXB mice; type: in vivo, HBV strain PBB004 (Genotype C); settings: for copy number of HBV DNA in the liver / copy number of cccDNA in the livers: Day 0 to 27, liver Day 28, vs control
[3] = 0.1 mg administration group vs control (PBS)

CC(C)C[C@H](N)C(=O)N[C@@H](CC(N)=O)C(=O)N[C@@H](CS)C(=O)N[C@@H](CCCNC(=N)N)C(=O)N[C@@H](CC(=O)O)C(=O)N[C@@H](CC(N)=O)C(=O)N[C@H](C(=O)N[C@@H](CCCNC(=N)N)C(=O)O)[C@@H](C)O [LIPH4-23s] (H-LNCRDNTR-OH; N-terminus and C-terminus assumed)
anti-HBV activity (effect to reduce HBV DNA and cccDNA copy numbers) [1]: very high anti-HBV activity
anti-HBV activity (effect to reduce HBV DNA and cccDNA copy numbers) ([1]; listed as polypeptide (3)): very strong effect to reduce HBV DNA and cccDNA copy numbers
HBV-DNA copy number [1]: significantly reduced
cccDNA copy number [1]: significantly reduced

C[C@H](NC(=O)[C@@H](NC(=O)[C@H](CC(N)=O)NC(=O)[C@H](Cc1c[nH]cn1)NC(=O)[C@H](CCCNC(=N)N)NC(=O)[C@H](CS)NC(=O)[C@@H](N)CC(N)=O)[C@@H](C)O)C(=O)NCC(=O)O [LIPH4-NTNBs] (H-NCRHNTAG-OH; N-terminus and C-terminus assumed)
anti-HBV activity (effect to reduce HBV DNA and cccDNA copy numbers) [1]: very high anti-HBV activity
anti-HBV activity (effect to reduce HBV DNA and cccDNA copy numbers) ([1]; listed as polypeptide (1)): very strong effect to reduce HBV DNA and cccDNA copy numbers
HBV-DNA copy number [1]: significantly reduced
cccDNA copy number [1]: significantly reduced
area of staining of the antigen, HBcAg immunostaining of liver [2, 3]: smaller
area of staining of the antigen, HBsAg immunostaining of liver [2, 3]: smaller
copy number of HBV DNA in the liver ([2]; 0.1 mg/body ip): reduced the copy number of HBV DNA
copy number of cccDNA in the livers ([2]; 0.1 mg/body ip): significantly reduced the copy number of HBV DNA
copy number of HBV DNA in the liver ([2]; 2 mg/body ip): reduced the copy number of HBV DNA
copy number of cccDNA in the livers ([2]; 2 mg/body ip): significantly reduced the copy number of HBV DNA
copy number of HBV DNA in the liver ([2]; 4 mg/body ip): reduced the copy number of HBV DNA
copy number of cccDNA in the livers ([2]; 4 mg/body ip): significantly reduced the copy number of HBV DNA
